Article PMC5674975
No constants are given. Whether binding was seen depends on the method and setting. In cells and extracts the contact can be indirect. Some results given as binding are weak or reduced against the parent protein; the word gives no strength.

Target: T1, vascular endothelial cadherin (human (endogenous in HUVEC)), P33151
T1 chain: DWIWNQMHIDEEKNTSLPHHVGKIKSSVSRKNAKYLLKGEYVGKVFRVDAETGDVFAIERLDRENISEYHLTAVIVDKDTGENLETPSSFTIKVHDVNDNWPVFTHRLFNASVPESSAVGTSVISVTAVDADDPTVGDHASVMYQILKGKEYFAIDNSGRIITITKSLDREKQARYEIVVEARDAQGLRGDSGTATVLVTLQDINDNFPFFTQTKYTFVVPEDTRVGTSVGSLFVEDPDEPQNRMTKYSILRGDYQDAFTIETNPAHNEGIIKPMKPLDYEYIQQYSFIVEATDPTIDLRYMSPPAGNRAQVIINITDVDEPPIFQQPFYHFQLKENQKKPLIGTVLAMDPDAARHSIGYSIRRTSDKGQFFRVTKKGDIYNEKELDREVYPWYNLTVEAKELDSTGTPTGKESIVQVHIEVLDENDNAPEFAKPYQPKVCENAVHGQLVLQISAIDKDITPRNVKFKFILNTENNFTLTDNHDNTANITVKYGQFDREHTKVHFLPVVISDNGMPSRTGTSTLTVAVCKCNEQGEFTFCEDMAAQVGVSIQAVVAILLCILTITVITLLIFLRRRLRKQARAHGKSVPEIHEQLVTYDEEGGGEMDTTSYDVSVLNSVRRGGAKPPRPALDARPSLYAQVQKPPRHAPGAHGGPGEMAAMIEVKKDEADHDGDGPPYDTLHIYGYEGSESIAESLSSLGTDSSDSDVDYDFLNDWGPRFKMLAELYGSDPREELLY
Experiment: co-IP; HUVEC lysed in RIPA buffer; VE-cad antibody and protein A-agarose, overnight at 4°C; blot for β-catenin and VE-cad; mIgG as control; control cells, also cells overexpressing DN-PKC-β, DN-PKC-α or DN-PKC-δ with high glucose (Figures 1C, 3D)
Conditions: remark: other sources report otherwise

binding: binds
B1: β-catenin, P35222 1-781 (protein)
chain: MATQADLMELDMAMEPDRKAAVSHWQQQSYLDSGIHSGATTTAPSLSGKGNPEEEDVDTSQVLYEWEQGFSQSFTQEQVADIDGQYAMTRAQRVRAAMFPETLDEGMQIPSTQFDAAHPTNVQRLAEPSQMLKHAVVNLINYQDDAELATRAIPELTKLLNDEDQVVVNKAAVMVHQLSKKEASRHAIMRSPQMVSAIVRTMQNTNDVETARCTAGTLHNLSHHREGLLAIFKSGGIPALVKMLGSPVDSVLFYAITTLHNLLLHQEGAKMAVRLAGGLQKMVALLNKTNVKFLAITTDCLQILAYGNQESKLIILASGGPQALVNIMRTYTYEKLLWTTSRVLKVLSVCSSNKPAIVEAGGMQALGLHLTDPSQRLVQNCLWTLRNLSDAATKQEGMEGLLGTLVQLLGSDDINVVTCAAGILSNLTCNNYKNKMMVCQVGGIEALVRTVLRAGDREDITEPAICALRHLTSRHQEAEMAQNAVRLHYGLPVVVKLLHPPSHWPLIKATVGLIRNLALCPANHAPLREQGAIPRLVQLLVRAHQDTQRRTSMGGTQQQFVEGVRMEEIVEGCTGALHILARDVHNRIVIRGLNTIPLFVQLLYSPIENIQRVAAGVLCELAQDKEAAEAIEAEGATAPLTELLHSRNEGVATYAAAVLFRMSEDKPQDYKKRLSVELTSSLFRTEPMAWNETADLGLDIGAQGEPLGYRQDDPSYRSFHSGGYGQDALGMDPMMEHEMGGHHPGADYPVDGLPDLGHAQDLMDGLPPGDSNQLAWFDTDL
